In data set [1] the target is T1, PoxClrB1-120 (Penicillium oxalicum HP7-1) (UniProt A0A1C9J6R8).
T1 sequence (looked up): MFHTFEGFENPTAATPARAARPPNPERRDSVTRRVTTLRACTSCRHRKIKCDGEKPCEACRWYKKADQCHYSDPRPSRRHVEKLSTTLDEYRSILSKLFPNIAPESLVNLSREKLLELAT
Briefly: EMSA. The conditions noted are these: EMSA: 20 mM Tris-HCl pH 8.0, 50 mM KCl, 0.1 mg/mL BSA, 5% glycerol, 1 mM DTT, 1 ug salmon sperm DNA, ~50 ng probe, 30 min at 30 C; footprinting at 30 C; recombinant protein; residues 1-120; protein details: Trx-His-S (pET32a); label: 6-FAM; probe letters rebuilt from the primers and the genome. (Mobility shift assays separate free from complexed probe on a gel.)

For data set [2], the target named is PoxCxrA11-31 (Penicillium oxalicum HP7-1) (UniProt A0A2H4WV05). The data set can be described thus: EMSA. The conditions noted are these: EMSA: 20 mM Tris-HCl pH 8.0, 50 mM KCl, 0.1 mg/mL BSA, 5% glycerol, 1 mM DTT, 1 ug salmon sperm DNA, ~50 ng probe, 30 min at 30 C; footprinting at 30 C; recombinant protein; residues 11-31; protein details: Trx-His-S (pET32a); label: 6-FAM; probe letters rebuilt from the primers and the genome.

No signal at the amounts used counts as a negative. For some assays here: Protein sequences can lack the tags named with them.

Take “CACTGTGTAGCAGCATATCGAAGAAGCTGGCCATCCAGCCGGGGATTAGCAAGTTCGCGACTGCAGTGATCGGGGGTTAGAAAGTGCGAGTACCAGGATGCAAACGTGGTTCGTCGGTCTTTCTAAAACCCGCCTGTCCCCCCGCCCCCACACTCTATGGTACACTTGCCCTTTCATTCATTCTTTCTTCCTTTCTTTCCTTTTTTTTTCCGCCCAAAATCCTCGGGCTTCGGGCACTCGGACTCAGGAGCAACTCTTCTATCCCGTAGTCAATCACTTAATCACTTGCAACTGGATCAATAGTTTCTCAAGTCGTCGGC (double strand) [PoxCxrA promoter 300 bp]”: the binding result in data set [1] was “no binding”.

For “GAGAGATCCACTACCCGCAAAATCTGGGGAGCTTCCTCCGTGTCCGCGGAGTGCGTGCTGGCAGGCATTCCATTTTCGTGCATGACTGAGATGAACTTCACCCCCTGGGGCTATGCACAGTGGTGCGGACCGCCACGCCGTGGATGTCCATCCCAAAAGGAAATCAGTCGAGAGGCGAATTGCTTCAGGATCCACCCAAGGAAGCAACTATATAAGAAGAGGTGCCATCACCTCGACTCTGGTGTTCATCATCCATTCCTTCCTCATCTCCTCCACCACCCCCCTTTCATCAGATCCTCAAAGAACAAAATTGATCATCATCTCTTTTGATCTTTGATCCAATCCATCACA (double strand) [POX05587/Cel7A-2 promoter 300 bp]”, in data set [2], the binding result is “no binding”.
